According to patent publication US7560105B1, “Dendritic cells activated in the presence of glucocorticoid hormones are capable of suppressing antigen-specific T cell responses” (Leids Universitair Medisch Centrum, priority 1999, dated 2009):
For at least one compound, name, drawing or mass did not settle the structure.

Tests used:
[1] = system: human monocyte-derived DC; experiment: DC surface phenotype by flow cytometry after CD40 ligation; assay type: cell-based; conditions: simultaneous addition with DEX; data not shown
Method: Immature DC were generated from peripheral blood monocyte precursors (PBMC). Human PBMC from healthy donors, isolated through Ficoll-Hypaque density centrifugation were plated at 1.5×10^7 per well in 6-well plates (Costar Corp., Cambridge, Mass.) in RPMI 1640 (Life Technologies, Paisley, Scotland) supplemented with 2 mM glutamine, 100 UI/ml penicillin and 10% FCS. After 2 h at 37° C., the nonadherent cells were removed and the adherent cells were cultured in medium containing 500 U/ml IL-4 (Pepro Tech Inc. Rocky Hill, N.J.) and 800 U/ml GM-CSF (kindly provided by Dr S. Osanto, LUMC, Leiden, NL) for a total of 7 days.
Activation of DC though CD40 was performed with a fusion protein made of the extracellular domain of human CD40L and of the murine CD8a chain (CD 8-CD40L). The CD8-CD40L cDNA described by Garrone et al. (23) was transferred into an eukaryotic expression vector containing the hygromycin resistance gene and used for the generation of stably transfected Chinese Hamster Ovary (CHO) cells. […] DC were incubated at 5×10^5/ml/well in a 24-well plate (Costar Corp., Cambridge, Mass.) and activated in the presence of 1/10 CD8-CD40L supernatant. Cells and supernatants were analyzed after 48 h. […]
Cells were stained on ice with FITC or PE-conjugated mouse monoclonal antibodies (MoAb) for 30 min in PBS 1% FCS and were analyzed on a FACScan® (Becton Dickinson, San Jose, Calif.). […]

[2] = system: monocyte precursors; conditions: cited from earlier work
[3] = system: nonadherent allogeneic PBMC; experiment: Allogeneic mixed lymphocyte reaction (MLR); assay type: cell-based, human; conditions: DEX added prior to CD40 triggering; day 5
[4] = system: human monocyte-derived DC; experiment: Cytokine detection by ELISA in DC culture supernatants; assay type: cell-based
Method: Data are representative from 6 independent experiments.
Activation of DC though CD40 was performed with a fusion protein made of the extracellular domain of human CD40L and of the murine CD8a chain (CD 8-CD40L). The CD8-CD40L cDNA described by Garrone et al. (23) was transferred into an eukaryotic expression vector containing the hygromycin resistance gene and used for the generation of stably transfected Chinese Hamster Ovary (CHO) cells. […] DC were incubated at 5×10^5/ml/well in a 24-well plate (Costar Corp., Cambridge, Mass.) and activated in the presence of 1/10 CD8-CD40L supernatant. Cells and supernatants were analyzed after 48 h. Of note, control supernatants obtained from untransfected CHO cells or from CHO cells transfected with the CD8a cDNA lacked DC activating functions and were similar to culture medium.
Culture supernatants were analyzed in serial two-fold dilutions in duplicate. IL-12p70 was detected using a solid phase sandwich ELISA kit (Diaclone Research, Besancon, France) (sensitivity 3 pg/ml). For IL-12p40 and IFN-g detection, capture MoAb and polyclonal biotinylated detection Ab were obtained from Peter van de Meijde (BPRC, Rijswijk, NL) (sensitivity 10 pg/ml). IL-10 was detected using the Pelikine compact human IL-10 ELISA kit (CLB, Amsterdam, NL) (sensitivity 3 pg/ml).

[5] = system: human monocyte-derived DC; experiment: Antigen uptake experiments (FITC-BSA, FITC-mannosylated BSA); assay type: cell-based; conditions: immature DC, 10^-6 M DEX 24 h vs untreated

Row | Compound | effect on DEX action on DC [1] | differentiation of DC from monocyte precursors [2] | T-cell stimulatory capacity of DC (proliferative response) [3] | IL-12p70 secretion ([4]; CD40 triggering of DEX-treated DC) | IL-12 and IL-10 secretion ([4]; DEX-treated immature DC, no CD40 triggering) | incorporation of FITC-BSA and FITC-mannosylated BSA [5]
1 | CC#C[C@]1(O)CC[C@H]2[C@@H]3CCC4=CC(=O)CCC4=C3[C@@H](c3ccc(N(C)C)cc3)C[C@@]21C [RU486] | abolished | – | – | – | – | –
2 | C[C@@H]1C[C@H]2[C@@H]3CCC4=CC(=O)C=C[C@]4(C)[C@@]3(F)[C@@H](O)C[C@]2(C)[C@@]1(O)C(=O)CO [DEX, dexamethasone] | – | prevent the differentiation | reduced their T-cell stimulatory capacity to that of immature DC | complete suppression | failed to secrete detectable amounts | comparable
